Assay results

The results are deposited in PubChem (AID1159506; NCATS, 2015).

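Genome-wide siRNA knockdown in TC32 Ewing sarcoma cells, comparing luciferase light from an NR0B1-promoter reporter with a CMV-promoter reporter 48 hours after transfection.
Each siRNA was applied at 20 nM.
A z-score of the log NR0B1-over-CMV signal, less the median of siRNAs with the same seed; more negative means a stronger specific loss of the NR0B1 reporter.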

The strongest results of the screen are mostly left out here.
Sequences are the guide (antisense) strand, without overhang.

siRNA,target gene,seed-corrected z-score
UUGUUUUCCCACUCGUUUC,BMP2,0.5819
AAAACUUGCAGAUUAUUGC,TBX19,-0.178
UCAUUUCUCACAACACUUA,SLC25A2,-0.1675
UUUGUCUGAGGAAACUGCC,THEM5,-0.5545
UGGGAUACGAGAGACUAGG,ENPP6,0.09565
UUCUAGUUACAAAUUGUCU,NEUROD2,0.3914
UGAGGUCCUUGAUUUAGCU,DLX4,0.1701
UCCGUUAUUACAACAGUCC,UPP2,0.2191
UGUCUAUCCAGUCAAUAUC,MYO10,-0.1441
UGGGUGAUAAGCACGGUCU,NARFL,0.2201
UCCUUUGACUCAUAUGUCC,CTSF,0.426
UUGAGUUCGUUGAUAUUCU,PEX14,0.0661
UACUUCCCAUGCUAAGCUG,STH,-0.4331
UGUUACACCACUAAGAAAC,GIF,0.6609
AAAAGAUCUAUUCUUUGCC,FBXL2,-0.604
UUUCUGACACUCCACAUUG,SMYD2,-0.4704
AACAGACAUGGGAUGGUUG,NMNAT2,-1.937
AAAGGGUCUUCGUCUGUCC,COL5A3,0.3905
UUUCCGAAUGUGCAUAACC,MAN1A2,-0.09035
UCGGAAUCAUGCACAGUGC,TOLLIP,-0.1725
UGAACAACUCAAAUUGAUG,PGRMC2,0.2156
UAUAGCAUAAUCCAUGGAG,ZNF398,0.2744
UUCCUUCCCAUCGAUGUUC,ERG,-0.656
UCGAUUAUCCCAAAGGCCC,OR2V2,0.01583
UAUAUUCAGGGUGAAAGGG,SERPINA9,-0.2026
UCUCGAUCAGGCAAGAAGC,FAM50A,0.0984
UAUUUUUGAGAUUGGUACG,LILRB1,0.5142
AUCUUAUGAAGAUACACUG,TAF1L,-0.1737
AAUGUACUCUGGUUUUUCG,TBATA,0.5207
UCUUCUUUGUGCGCCCUCC,DDN,-0.03111
UUCUGUACAAACAGAAGUG,CTNS,0.2071
AUAUGGUCUAGAAAGAUGC,TTBK2,0.378
AUACUCAUUCCCGCGAGCC,MRPL34,-0.006953
UGUGCGUUCAAGUUGUUCU,FSIP2,-0.007848
ACUGUUAUUGGGACUGUGC,DLX3,1.062
AAUAUUAAUACAAUCUGGU,SOX18,0.06305
UCUGGGCCGAUCUUUAUGU,PLEKHB1,0.5076
UCAUUUCGAUUUAUAAAUC,YBX3,-0.01278
UCUGUAAAGGGUAAGAUGA,HEXIM2,0.5316
UAUGACAACACUCCAGCAC,RNF182,0.5617
UGCUUCUUCCGACUUCUCU,BATF3,-0.0249
UGGUUGAUAAUCUCCAUAC,PTPN13,0.5007
CAUUCACACAGAAAGUUUU,NRG1,-0.3832
AAAGGCGUAACAAACCAGC,SLC4A10,1.358
UAGUGGACUAUUGCACUCU,LOC729040,0.1747
ACUGCUUACAGUAAGACUC,INPP5B,-1.239
UUUCUGAGUUUAACUUUUC,C19orf38,0.1132
UGAUAGUCAAGAAGUAAUC,OCRL,-0.01178
UUCUUAAUGAUGUGCACCC,TBX20,-0.5498
AAUCUCAAAAUGAUGCACC,ITIH1,0.7099
UCUGGGACAGGUUCACGAU,MFSD12,0.02349
UUCUCUUUCCGGCUGAUUG,PACSIN3,-1.016
UUUUCACAGAGGGUGCAGG,PRF1,-0.2817
UGGACUACAAGUGUCUCGC,ANGPT4,0.3386
UUUAUCCCACCUAUCAUGC,PEAK1,-0.7246
AUAUUUCGAAGUUCAACCG,NF1,-0.8909
UCAGCUUCUCCACGCAUUC,NOSIP,-0.5611
UUAGAUCAUAUGUUACUAG,UCP1,-0.01532
UCCUAGACAGUUACUAUAG,RCBTB1,-0.3281
AAAGAGGCAAGUACAAUGC,KCNS1,0.2743
UAUAGUGAAAUUCCAAAGC,DSTYK,0.6448
AACUGGACAAUGUCUCGGG,CPNE6,-0.4853
UUAAUAGGCAGCUUAUCAC,LINC00687,1.07
UGAAUACUCAAAAUCUCGG,RPRD2,0.7574
AAUGGGAAAGGACCGCUCC,DLEU7,-0.5716
UAAAUGACGUGAAGAGUCG,FA2H,-0.07587
UCACUGUCCAUUAGGCUCU,DHRS3,-1.098
UUGGUUUUCCCUUCGAAGC,GPR17,-0.4155
UCUGCAACUGGGAUAACUG,OOSP2,-0.1708
UUAAUUUCUACAACUUAGU,CEACAM6,0.5068
UUCUCGAAGAAGGAACUGC,MGAT5,0.3182
UUCUAAAGUAAGAAAAGUC,C21orf62,0.5242
UCAGAAUAAGAGGCACUGU,HIC2,0.2891
AACUCUUCAUUCUUAGUCC,ZSCAN16,0.635
UUUCCAACCCAUACUGCGC,ZMYND11,-0.1993
GCUGUUGCCCUUCACACAC,MIR1-1HG,0.7772
UAAAGUGUCAGUCUCCAGC,HHAT,0.6387
UAACCGAACUGCUUCUAGA,TMEM80,0.2723
UCUUCUGUCCAGUAGAGGG,QRFP,-0.03231

Once more, the final 10:

For UUAAUUUCUACAACUUAGU against CEACAM6 the result was seed-corrected z-score 0.5068.
For UUCUCGAAGAAGGAACUGC against MGAT5 the result was seed-corrected z-score 0.3182.
For UUCUAAAGUAAGAAAAGUC against C21orf62 the result was seed-corrected z-score 0.5242.
For UCAGAAUAAGAGGCACUGU against HIC2 the result was seed-corrected z-score 0.2891.
For AACUCUUCAUUCUUAGUCC against ZSCAN16 the result was seed-corrected z-score 0.635.
For UUUCCAACCCAUACUGCGC against ZMYND11 the result was seed-corrected z-score -0.1993.
For GCUGUUGCCCUUCACACAC against MIR1-1HG the result was seed-corrected z-score 0.7772.
For UAAAGUGUCAGUCUCCAGC against HHAT the result was seed-corrected z-score 0.6387.
For UAACCGAACUGCUUCUAGA against TMEM80 the result was seed-corrected z-score 0.2723.
For UCUUCUGUCCAGUAGAGGG against QRFP the result was seed-corrected z-score -0.03231.